# The list shows a part of the results. These are further read-outs of the screen, such as a control signal, another cell line or another target. No call is given for them. The list favours compounds with an active or inconclusive main result. Potencies come from curve fits of mixed quality, noted in brackets. Where a SMILES comes first, the peptide text is derived from it. [ ]: non-standard residue; d: D form. ξ: configuration not given here. ξV = CC(C)C(N)C(=O)O
# Assay: qHTS Assay for Lipid Storage Modulators in Drosophila S3 Cells;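 as to cell number change: cells counted by Cell Tracker Red CMTPX staining in the red channel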
# Conditions: BODIPY lipid droplet fluorescence, 18-24 h; for cell number change: measured here: cell count max response, cells fed with added oleic acid
# How it was run: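 Drosophila S3 cells loaded with oleic acid (400 uM, as added) and compounds at several concentrations; lipid droplets imaged by 488-nm laser-scanning cytometry, 500–530 nm intensity and object ratio to cell channel. Percent activity normalized to 20 uM Triacsin C.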
# [1] = measured here: cell number channel AC50, cells fed with added oleic acid
# [2] = measured here: lipid fluorescence (Fed channel) AC50, cells fed with added oleic acid
Structure (SMILES),cell number change,AC50 [1],AC50 [2]
CCOC(=O)c1cnc2ncnn2c1N,-43.6%,"29.1 µM [falling, single point]","29.1 µM [falling, single point]"
COC(=O)[C@@]12CCCN1[C@H](c1ccc(-c3ccc(OC)cc3)c(OC)c1)[C@@H]1C(=O)N(C)C(=O)[C@@H]12,-30.4%,"4.11 µM [falling, partial curve]",–
O=S(=O)(Nc1ncnc2sc3c(c12)CCC3)c1ccc(Cl)s1,-17.4%,–,"29.1 µM [rising, single point]"
CCOC(=O)c1ccc(-c2c(-c3ccccc3OC)oc3ccccc23)cc1F,8.86%,–,"0.103 µM [rising, full curve, poor fit]"
COc1cccc(Cl)c1NC(=O)N1CCN(c2ccnc3cc(Cl)ccc23)CC1,–,"6.51 µM [rising, single point]",–
CC(N=c1ccccn1C(=O)Nc1cccc(C(F)(F)F)c1)c1ccco1 (stereo not drawn),1.08%,–,"29.1 µM [rising, single point]"
COC(=O)c1cc(-c2c(-c3cc(OC)c(OC)c(OC)c3)noc2C)cc([N+](=O)[O-])c1,16.8%,–,–
O=C(O)c1cccc(S(=O)(=O)Nc2ccc(S(=O)(=O)N3CCOCC3)cc2)c1,–,"0.146 µM [falling, full curve, poor fit]","0.82 µM [falling, partial curve, poor fit]"
O=C(N[C@@H](Cc1ccccc1)C(=O)N1CCC2(CC1)NCCc1[nH]cnc12)c1cccc(Br)c1,17.8%,–,–
CC(C)Oc1ccc(S(=O)(=O)N2CCCCC2)cc1NC(=O)CN1C(=O)NC2(CCCC2)C1=O,98%,"20.6 µM [rising, partial curve]",–
Cc1cc(NC(=O)c2ccc([N+](=O)[O-])cc2)no1,–,–,"0.731 µM [falling, full curve]"
Cc1cccc(C)c1NC(=O)CN(C)C(=O)c1ccc2c(=O)n3c(nc2c1)CCC3,42.5%,"4.61 µM [rising, partial curve, poor fit]","16.4 µM [rising, partial curve]"
CC1CN(C(=O)c2cc3cc(F)ccc3[nH]2)CC(C)O1 (stereo not drawn),-7.75%,–,–
O=C(c1ccccc1)N1CCN(S(=O)(=O)c2cccs2)CC1,7.34%,–,–
COc1ccc(CC(=O)NNC(=O)CN(C)S(=O)(=O)c2ccc(Cl)cc2)cc1OC,-17.9%,–,"1.03 µM [falling, full curve]"
COc1cc(C2C3=C(CCCC3=O)Nc3c2c(C)nn3-c2cccc(C)c2)cc(OC)c1O (stereo not drawn),-37.9%,"13 µM [falling, single point]","18.4 µM [falling, single point]"
Cc1ccc(SCC(=O)O/N=C(\N)c2ccncc2)cc1,-12.4%,–,"29.1 µM [falling, single point]"
COCCCn1nnnc1SCC(=O)N1c2ccccc2CC1C (stereo not drawn),14.6%,–,"6.51 µM [falling, single point]"
Cc1ccc(-c2cc(C(=O)Nc3ccncc3)c3ccccc3n2)cc1,32%,"6.51 µM [rising, partial curve, poor fit]","6.51 µM [rising, single point]"
Cc1cccc2nc(CSCc3ccco3)cn12,38.3%,"29.1 µM [rising, single point]","16.4 µM [rising, partial curve]"

Structure (SMILES),cell number change,AC50 [1],AC50 [2]
CCOC(=O)CSc1nc(C)cc(=O)[nH]1,4.31%,–,–
Cc1ccc(-n2c(SCC(=O)N3CCOCC3)nc(O)c(Cc3ccccc3)c2=O)cc1,-6.25%,–,"0.259 µM [falling, full curve, poor fit]"
CCCCc1ccc(NS(=O)(=O)c2c(C)n(C)c(=O)n(C)c2=O)cc1,34.9%,"5.8 µM [rising, full curve, poor fit]",–
CCn1c(SCc2ccc(F)cc2)nc2ccccc2c1=O,–,–,"7.31 µM [rising, partial curve]"
Cc1ccccc1NC1=NC2(CCCC2)N=C(N)N1,–,–,"0.00461 µM [falling, full curve, poor fit]"
O=C(COC(=O)/C=C/c1cccc(Cl)c1)NC1CCCC1,13.8%,–,"4.61 µM [rising, full curve]"
O=C(NCc1ccncc1)Nc1ccccc1Cl,15.4%,–,"29.1 µM [rising, single point]"
Cc1ccc(CN2CCN(CC3CC4C=CC3C4)CC2)cc1 (stereo not drawn),-4.5%,–,"0.0461 µM [falling, full curve, poor fit]"
COc1ccc(-c2nn3c(-c4ccccc4)nnc3s2)cc1OC,-32.4%,"8.2 µM [falling, partial curve, poor fit]",–
C/C(N)=C(/C#N)C(=O)COC(=O)C1Cc2ccccc2CN1S(C)(=O)=O (stereo not drawn),28%,"0.731 µM [rising, full curve, poor fit]",–
O=C(NCC(O)COc1ccc([N+](=O)[O-])cc1)c1ccccc1 (stereo not drawn),27.9%,–,"0.116 µM [falling, full curve, poor fit]"
CCO[C@H]1OC(C(N)=O)=C[C@@H](c2ccc(Br)cc2)[C@@H]1CCCO,14.9%,–,"0.731 µM [rising, partial curve]"
Cc1cc2cc(C(c3nnnn3Cc3ccco3)N3CCc4ccccc4C3)c(=O)[nH]c2cc1C (stereo not drawn),1%,–,"10.3 µM [rising, partial curve]"
Cc1csc(NC(=O)c2cc3c(s2)-c2ccccc2OC3)n1,-40.2%,"23.1 µM [falling, single point]",–
CCCOc1ccc(CNC(=S)N/N=C/c2ccc([N+](=O)[O-])cc2)cc1,17.6%,–,"2.91 µM [rising, partial curve]"
CCOC(=O)Cn1c(C)cc(COC)c(C#N)c1=O,8.83%,–,"6.51 µM [falling, single point]"
C=CCOc1c(Br)cc(/C=N/NC(N)=O)cc1OC,18%,–,"0.517 µM [rising, partial curve]"
COc1cc(CNCCc2c[nH]c3ccccc23)ccc1OCc1ccccc1F,-58.5%,"29.1 µM [falling, single point]","29.1 µM [falling, single point]"
CCOc1cc(-c2cc(-c3ccc(C)cc3)nc(N)c2C#N)ccc1O,-63.1%,"29.1 µM [falling, single point]",–
Cc1ccc(-n2ncc3c2CC(C)(C)CC3NC(=O)c2ccncc2)cc1 (stereo not drawn),18.1%,–,"4.61 µM [rising, partial curve, poor fit]"

Structure (SMILES),cell number change,AC50 [1],AC50 [2]
Cc1ccc(CC(=O)Nc2cccc(S(=O)(=O)N3CCOCC3)c2)cc1,–,"0.58 µM [rising, single point]",–
Cc1cc(C)n2c(SCc3cccs3)nnc2n1,–,"6.51 µM [rising, single point]","6.51 µM [rising, partial curve]"
COc1ccc(CCn2c(-c3ccco3)nc3nc4ccccc4nc32)cc1,-143%,"29.1 µM [falling, single point]","29.1 µM [falling, single point]"
O=C(CN1CCN(S(=O)(=O)c2ccc(Br)cc2)CC1)Nc1ccc2c(c1)OCO2,-22.3%,–,"0.082 µM [falling, full curve, poor fit]"
CC(=O)NC(C(=O)NCC(N)=O)C(C)C (stereo not drawn) (Ac-[ξV]-Gly-NH2),-4.76%,–,"23.1 µM [falling, single point]"
CCNC(=O)c1ccc(C2SCC(=O)N2Cc2ccco2)cc1 (stereo not drawn),-20.9%,–,"0.164 µM [falling, full curve, poor fit]"
COc1ccc(NS(=O)(=O)c2ccc(S(=O)(=O)N3CCCC3)cc2)cc1,14.8%,–,"4.11 µM [rising, single point]"
CCOC(=O)C1CCN(S(=O)(=O)c2ccc(OC)c(C(=O)N3CCCCCC3)c2)CC1,40.8%,"5.8 µM [rising, full curve, poor fit]",–
CC(C)CCN(C(=O)Cc1ccccc1F)c1c(N)n(Cc2ccccc2)c(=O)[nH]c1=O,18.8%,–,–
CN(C)c1nc(Oc2ccc(/C=N/O)cc2)nc(N(C)C)n1,-19.3%,–,"8.2 µM [rising, partial curve]"
CCCn1c(N)c(N(CCOC)C(=O)c2ccc(F)cc2F)c(=O)[nH]c1=O,5.26%,–,"3.16 µM [rising, partial curve]"
CCc1ccc(N(CC)C(=O)c2ccc3c(Cl)c4c(nc3c2)CCC4)cc1,10%,–,"1.64 µM [rising, partial curve, poor fit]"
CN1CCN(CC(O)COc2ccc(C34CC5CC(CC(C5)C3)C4)cc2)CC1 (stereo not drawn),5.85%,–,"0.116 µM [falling, full curve, poor fit]"
CCOC(=O)C1CCCN(C(=O)c2cc3c(C)nc4ccccc4c3o2)C1 (stereo not drawn),31.4%,"1.03 µM [rising, full curve]","29.1 µM [rising, single point]"
Nc1cccc2c1C(=O)N(CCOc1ccccc1F)C2=O,7.66%,–,–
O=C(COc1ccc(F)cc1)N(Cc1ccc(Cl)cc1)C1CCS(=O)(=O)C1 (stereo not drawn),7.16%,–,"6.51 µM [falling, single point]"
NS(=O)(=O)c1ccc(NC(=O)NC2CC(=O)N(c3ccc4c(c3)OCCO4)C2)cc1 (stereo not drawn),-15.5%,–,–
COc1ccccc1NC(=O)CN(c1ccccc1OC)S(=O)(=O)c1ccccc1,-0.246%,–,"20.6 µM [falling, single point]"
CCc1ccc(OCC(=O)NC(C)(C)C)cc1,-23%,–,"6.51 µM [falling, partial curve, poor fit]"

# Random excerpt: 3 entries already listed.
Structure (SMILES),cell number change,AC50 [1],AC50 [2]
CC(=O)NC(C(=O)NCC(N)=O)C(C)C (stereo not drawn) (Ac-[ξV]-Gly-NH2),-4.76%,–,"23.1 µM [falling, single point]"
COc1ccc(CCn2c(-c3ccco3)nc3nc4ccccc4nc32)cc1,-143%,"29.1 µM [falling, single point]","29.1 µM [falling, single point]"
CCCn1c(N)c(N(CCOC)C(=O)c2ccc(F)cc2F)c(=O)[nH]c1=O,5.26%,–,"3.16 µM [rising, partial curve]"

# Reference: PubChem BioAssay AID2685 (National Center for Advancing Translational Sciences (NCATS), 2010)
